From PubChem BioAssay AID445 (National Center for Advancing Translational Sciences (NCATS), 2006)
This is one part of the list. Further columns of the screen follow, without active or inactive calls. Compounds called inactive in the main read-out are mostly missing here. The note in brackets gives the kind of curve behind each potency; many fits are weak.

Experiment: IkB Signaling
Conditions: ABC-DLBCL IkBa-CBG/CBR dual luciferase ratio (green luciferase fused to IkBa over red control in OCI-Ly3 lymphoma cells), 4 h
Method in brief: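 In this assay, an IκBα–CBG68 fusion accumulates when IKK-driven degradation is blocked; native CBR normalizes for cell number. OCI-Ly3 cells were treated 4 h with compound and doxycycline, then green and red light read after Chroma-Glo addition.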

[1] = measured here: control luc red channel unless noted
[2] = measured here: IkB-luc green channel
[3] = measured here: control luc red channel

## Cc1ccc(O)c(NC(=O)c2cc(-c3ccc4c(c3)OCO4)on2)c1
[1]
  AC50: 10 µM [falling, partial curve]

## COc1ccc(NC(=O)CCCSc2nc(-c3ccco3)cc(C(F)(F)F)n2)c(OC)c1
[1]
  AC50: 10 µM [falling, partial curve]

## COc1cccc(OCc2nc3ccccc3n2Cc2ccccc2C)c1
[1]
  AC50: 20 µM [falling, single point]

## CCOc1ccc(N(CC)C(=O)C2CCN(S(=O)(=O)c3cccc4nonc34)CC2)cc1
[1]
  AC50: 12.6 µM [falling, partial curve]

## COc1ccc(-c2noc(N3CCC(C(=O)N4CCN(c5ccccn5)CC4)CC3)n2)cc1
[1]
  AC50: 10 µM [falling, partial curve]

## COc1ccc(CCC(=O)NC2CC(=O)N(c3cccc(F)c3)C2)cc1 (stereo not drawn)
[1]
  AC50: 1 µM [rising, full curve, poor fit]

## Cc1ccc(-n2nc(C)c3c(C)cc(=O)n(CC(=O)N4CCCc5ccccc54)c32)cc1
[1]
  AC50: 25.1 µM [falling, single point]

## Cc1ccc(NC(=O)c2c(C)oc3ncnc(N4CCCCC4)c23)cc1Cl
[1]
  AC50: 25.1 µM [rising, partial curve, poor fit]

## O=C(Cc1ccc(Cl)cc1)Nc1nnc2n1CCS2
[1]
  AC50: 0.316 µM [falling, full curve, poor fit]

## COc1ccc(NC(=O)c2cc3ccccn3n2)cc1
[1]
  AC50: 7.94 µM [falling, partial curve]

## CCOc1ccc(N(C)C(=O)C2CCN(S(=O)(=O)c3ccc4c(c3)CCCN4C(C)=O)CC2)cc1
[1]
  AC50: 39.8 µM [falling, single point]

## CCC(Sc1nc2ccncc2[nH]1)C(=O)Nc1ccc(F)cc1 (stereo not drawn)
[1]
  AC50: 3.16 µM [falling, full curve]

## O=C(OCC(=O)N1CCN(C(=O)c2ccco2)CC1)c1cn(-c2ccccc2)nc1-c1ccccc1
[1]
  AC50: 31.6 µM [falling, single point]

## Cc1cc(C)cc(NC(=O)C(NS(=O)(=O)c2cccc3nsnc23)c2ccccc2)c1 (stereo not drawn)
[1]
  AC50: 25.1 µM [falling, partial curve]

## Cc1ccc(Cn2cnc3c(oc4ccccc43)c2=O)cc1
[1]
  AC50: 1 µM [rising, single point]

## OC[C@@H]1O[C@@H](n2cnc3c(NC4CCCC4)ncnc32)[C@H](O)[C@H]1O
[1]
  AC50: 39.8 µM [falling, single point]

## COc1ccc2nc(NC(=O)c3ccoc3C)sc2c1
[1]
  AC50: 2.51 µM [falling, full curve]

## CCOC(=O)N1CCN(C(=O)c2ccc3c(c2)N(Cc2cc(C)ccc2C)C(=O)c2ccccc2S3=O)CC1 (stereo not drawn)
[1]
  AC50: 15.8 µM [falling, partial curve]

## CC(=O)Nc1cccc(C(=O)Nc2ccccc2C(=O)O)c1
[1]
  AC50: 7.94 µM [falling, partial curve]

## CCCCOc1nnc(-c2ccc(OCC)cc2)c2ccccc12
[1]
  AC50: 31.6 µM [falling, partial curve]

## O=C1SC(Nc2ccc(Cl)cc2)C(=O)N1Cc1ccccc1 (stereo not drawn)
[1]
  AC50: 3.16 µM [rising, partial curve] [measured here: IkB-luc green channel]

## CCCc1cc(=O)n2[nH]c(NCc3ccc(CC)cc3)nc2n1
[1]
  AC50: 15.8 µM [falling, partial curve]

## O=C1c2[nH]nc(-c3ccccc3)c2C(c2ccccc2)N1c1cccc(C(F)(F)F)c1 (stereo not drawn)
[1]
  AC50: 15.8 µM [falling, partial curve]

## Cc1ccc(C(=O)CSc2nc(C)cc(SCc3nnc(-c4ccccc4)o3)n2)cc1
[1]
  AC50: 0.126 µM [falling, full curve]

## Cc1c(Cl)cccc1Nc1nc(N)nc(CSc2nc3ccccc3s2)n1
[1]
  AC50: 1 µM [rising, partial curve]

## Cc1ccc2oc(C(=O)Nc3ccc(S(=O)(=O)Nc4onc(C)c4C)cc3)cc(=O)c2c1
[1]
  AC50: 10 µM [falling, single point]

## CCc1ccc(CNc2ccc(O)cc2)cc1
[2]
  AC50: 20 µM [rising, partial curve]
[3]
  AC50: 20 µM [falling, partial curve, poor fit]

## Cc1ccc(NC(=O)CCCn2c3ccccc3c(=O)c3cc(C)ccc32)c(Br)c1
[1]
  AC50: 7.94 µM [falling, partial curve]

## CC1CCN(S(=O)(=O)c2ccc3c(c2)N(CC(=O)NCCc2ccc(Cl)cc2)C(=O)CO3)CC1
[1]
  AC50: 12.6 µM [falling, partial curve]

## CCOC(=O)c1c(C)[nH]c(C)c1S(=O)(=O)N1CCC(C(=O)N2CCN(c3cc(C)ccc3C)CC2)CC1
[1]
  AC50: 0.126 µM [falling, full curve, poor fit]

## O=C(CSc1ncc(S(=O)(=O)c2ccc(Cl)cc2)c(=O)[nH]1)Nc1ccc2c(c1)OCCO2
[1]
  AC50: 15.8 µM [falling, partial curve]

## CCCC(=O)Nc1nnc(SCc2cc(=O)c3ccc(C)cc3[nH]2)s1
[1]
  AC50: 25.1 µM [falling, single point]

## COC(=O)c1cc(N2C(=O)C3C(C2=O)C2(C)C=CC3(C)O2)ccc1Cl (stereo not drawn)
[2]
  AC50: 5.01 µM [falling, full curve]
[3]
  AC50: 3.16 µM [falling, full curve]

## O=C(c1ccc(S(=O)(=O)NCC2CCCO2)cc1)N1CCc2ccccc21 (stereo not drawn)
[1]
  AC50: 10 µM [falling, partial curve]

## Nc1c(C(=O)NCc2ccc3c(c2)OCO3)c2nc3ccccc3nc2n1CCCN1CCOCC1
[1]
  AC50: 12.6 µM [falling, partial curve]

## Cc1ccc(C2CC(C(F)F)n3ncc(C(=O)Nc4cnn(Cc5ccccc5C)c4)c3N2)cc1 (stereo not drawn)
[1]
  AC50: 12.6 µM [falling, partial curve]

## COc1ccc(-c2nc3ccc(NS(=O)(=O)c4ccccc4)cc3o2)cc1
[1]
  AC50: 39.8 µM [falling, single point]

## C=CCC(=O)OCC(=O)Nc1ccc(Oc2ccccc2)cc1
[1]
  AC50: 12.6 µM [falling, partial curve]

## Cc1cccc(-c2nnc3n(CCc4ccccc4)c(=O)c4ccccc4n23)c1
[1]
  AC50: 20 µM [falling, single point]

## Cc1ccc(NC(=O)c2sc(-n3nc(C)c(Cc4ccc(Cl)cc4)c3C)nc2C)cc1
[1]
  AC50: 12.6 µM [falling, partial curve]

## Cc1ccc(C)c(NC(=O)N2CCN(C)c3ncccc32)c1
[1]
  AC50: 7.94 µM [rising, single point]

## Oc1ccc(O)cc1
[1]
  AC50: 5.01 µM [falling, partial curve, poor fit] [measured here: IkB-luc green channel]

## CCN(Cc1ccccc1)C(=O)Cn1c(=O)n(-c2ccc(OC)cc2OC)c(=O)c2c(C)c(C)sc21
[1]
  AC50: 31.6 µM [falling, single point]

## CCCCn1c2ccccc2c2nnc(SCC(=O)Nc3ccc(NC(C)=O)cc3)nc21
[1]
  AC50: 0.00794 µM [rising, full curve, poor fit]

## O=C(O)CCCC(=O)Nc1nc(-c2ccccc2)cs1
[1]
  AC50: 0.316 µM [falling, full curve]

## COc1ccc(-c2noc(CSc3nnc(Cc4ccccc4)n3-c3cccc(C)c3)n2)cc1OC
[1]
  AC50: 15.8 µM [falling, partial curve]

## Cc1oc2ccc(O)c(CN(C)Cc3ccccc3)c2c1C(=O)Nc1cccc(Cl)c1C
[1]
  AC50: 7.94 µM [falling, partial curve]

## O=C(Nc1onc2c1CCCC2)c1ccc(Cl)cc1
[1]
  AC50: 0.251 µM [rising, full curve]

## CCc1nc2nc(C)cc(Nc3ccc(Br)cc3F)n2n1
[1]
  AC50: 31.6 µM [falling, single point]

## CCOC(=O)N1CCN(c2ccc(C(=O)c3cccc(F)c3)cc2)CC1
[1]
  AC50: 12.6 µM [falling, partial curve]

## Cc1ccccc1NC(=O)c1c2c(nc3ccccc13)C(=O)N(C1CCCCC1)C2
[1]
  AC50: 10 µM [falling, partial curve]

## CC1(C)Cc2c(sc3ncnc(N)c23)CO1
[1]
  AC50: 25.1 µM [falling, single point] [measured here: IkB-luc green channel]

## COc1ccccc1-c1cc(C(F)(F)F)nc(S(=O)(=O)CCCC(=O)Nc2cc(C)ccc2O)n1
[1]
  AC50: 3.16 µM [falling, partial curve]

## Cc1ccc2c(=O)c(C(=O)c3ccc(F)cc3)cn(CC(=O)NC3CCCCC3)c2n1
[1]
  AC50: 25.1 µM [falling, single point]

## COc1cccc(OCCSc2nc(C)c(Cc3ccccc3)c(=O)[nH]2)c1
[1]
  AC50: 10 µM [falling, partial curve]

## Cc1ccc(N(C)C(=O)C2CCN(S(=O)(=O)c3c(C)noc3/C=C/c3c(C)cc(C)cc3C)CC2)cc1
[1]
  AC50: 12.6 µM [falling, partial curve]

## COc1ccc(NC(=O)CCCN2C(=O)CCn3nc(-c4cn(C)c5ccccc45)cc32)cc1OC
[1]
  AC50: 25.1 µM [falling, partial curve]

## Cc1cccc(N2CCN(S(=O)(=O)c3ccc4[nH]c5c(c4c3)CCCCC5)CC2)c1C
[1]
  AC50: 10 µM [falling, partial curve]

## O=C(c1cc(-c2ccco2)on1)N1CCN(C(c2ccccc2)c2ccccc2)CC1
[1]
  AC50: 12.6 µM [falling, partial curve]

## CCN(CC)C(=O)Cn1nnc2sc(-c3ccccc3)cc2c1=O
[1]
  AC50: 39.8 µM [falling, single point]

## Cc1ccc(CN2CCSc3ccc(C(=O)NCC(C)c4ccccc4)cc32)cc1 (stereo not drawn)
[1]
  AC50: 10 µM [falling, partial curve]
